A: 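Histidine-tRNA ligase, Trypanosoma cruzi CL Brener (UniProt Q4DA54). Enzyme assay of histidyl-tRNA synthetase; the read-out is not stated. Concentration: 30 µM. Higher reads as stronger inhibition (inferred: compounds with an IC50 in retests scored well above the rest). Size under these conditions: about 69,000 compounds, about 31 of them at 50% or above in at least one test.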
B: 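Enzyme assay of CoaBC with a phosphate dye (Biomol Green) read at 650 nm. Target: Coenzyme A biosynthesis protein CoaBC, Mycobacterium tuberculosis (UniProt P9WNZ1). Tested at 30 µM. Direction is inferred from only a few compounds that gave an IC50; most scored high, so higher reads as stronger inhibition. Most strong results did not repeat in a second test. About 67,000 compounds were tested under these conditions; 0.06% (about 40) showed 50% or more at least once.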
C: 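Histidine-tRNA ligase, Leishmania infantum (UniProt A4I591). Enzyme assay of histidyl-tRNA synthetase; the read-out is not stated. Compounds at 30 µM. Higher reads as stronger inhibition (inferred: compounds with an IC50 in retests scored well above the rest). The assay is labelled LdHisRS but filed under L. infantum. About 69,000 compounds were tested under these conditions; 0.6% (about 410) showed 50% or more at least once.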

Chains of the proteins cited; added tags and fusions are not shown. Residues count along the entry.
UniProt Q4DA54, 1-478: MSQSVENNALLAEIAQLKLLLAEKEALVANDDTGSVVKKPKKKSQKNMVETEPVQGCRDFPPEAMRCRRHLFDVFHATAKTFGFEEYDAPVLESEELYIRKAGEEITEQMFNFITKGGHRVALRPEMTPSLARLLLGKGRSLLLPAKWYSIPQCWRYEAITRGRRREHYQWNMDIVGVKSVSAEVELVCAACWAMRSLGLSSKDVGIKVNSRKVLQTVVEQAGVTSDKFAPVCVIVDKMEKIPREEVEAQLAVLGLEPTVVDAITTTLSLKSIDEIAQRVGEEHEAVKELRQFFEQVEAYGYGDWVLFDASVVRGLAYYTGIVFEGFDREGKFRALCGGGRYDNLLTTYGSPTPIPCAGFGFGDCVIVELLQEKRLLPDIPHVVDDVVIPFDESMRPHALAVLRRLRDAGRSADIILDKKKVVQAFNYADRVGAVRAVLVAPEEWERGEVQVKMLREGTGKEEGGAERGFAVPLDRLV
UniProt P9WNZ1, whole entry: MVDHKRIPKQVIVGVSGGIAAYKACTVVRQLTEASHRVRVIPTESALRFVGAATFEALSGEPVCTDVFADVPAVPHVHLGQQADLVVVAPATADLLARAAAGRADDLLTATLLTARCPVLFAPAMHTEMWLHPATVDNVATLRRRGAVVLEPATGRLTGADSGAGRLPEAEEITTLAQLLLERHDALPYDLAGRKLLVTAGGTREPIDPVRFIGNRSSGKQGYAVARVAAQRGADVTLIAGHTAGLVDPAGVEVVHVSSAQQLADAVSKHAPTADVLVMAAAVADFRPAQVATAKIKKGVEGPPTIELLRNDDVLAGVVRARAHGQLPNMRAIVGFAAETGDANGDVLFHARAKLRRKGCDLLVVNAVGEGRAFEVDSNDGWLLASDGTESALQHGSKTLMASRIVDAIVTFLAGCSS
UniProt A4I591, 1-473: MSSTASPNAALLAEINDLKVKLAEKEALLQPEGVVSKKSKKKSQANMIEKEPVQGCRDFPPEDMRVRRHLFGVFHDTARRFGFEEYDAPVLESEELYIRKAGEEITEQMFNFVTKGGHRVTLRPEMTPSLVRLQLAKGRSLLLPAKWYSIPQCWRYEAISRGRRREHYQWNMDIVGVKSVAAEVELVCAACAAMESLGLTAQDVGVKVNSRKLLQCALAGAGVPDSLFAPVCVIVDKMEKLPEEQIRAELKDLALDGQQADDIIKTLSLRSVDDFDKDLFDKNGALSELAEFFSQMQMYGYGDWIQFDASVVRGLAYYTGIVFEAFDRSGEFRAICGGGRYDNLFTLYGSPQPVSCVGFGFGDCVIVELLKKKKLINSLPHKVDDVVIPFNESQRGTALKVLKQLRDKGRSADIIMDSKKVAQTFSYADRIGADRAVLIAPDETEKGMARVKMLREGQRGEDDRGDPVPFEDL

Each number is a percent effect as filed. The controls that fix the scale are not given in the record; negative values are as filed. This is an unselected part of the compounds tested.

* COc1ccc(Cl)cc1CN(C)C(=O)CN1C(=O)OC[C@@H]1C(C)C | A: 3.478%; B: -8.518%; C: 15%
* CN(C(=O)C1CCCCC1)[C@@H]1CCC[C@@H](N2CCOCC2)[C@@H]1O | A: 1.622%; B: -1.667%; C: 8.333%
* CS(=O)(=O)N1C[C@@H]2CC[C@H](C1)N(CCC(=O)NCc1ccccc1F)C2 | A: 2.439%; B: 0.1255%; C: 11.86%
* CC(=O)N1CCCC(C(=O)N2CCC(=Cc3cccc(F)c3)CC2)C1 (configuration not stated) | A: 1.205%; B: 4.703%; C: 0%
* CCc1nc(CN(C)Cc2nc(-c3ccccc3Cl)oc2C)no1 | A: 2.564%; B: -0.9938%; C: 7.937%
* Cc1cccc(C(=O)N2C[C@@H](C)[C@@]3(CCN(c4ccsc4)C3=O)C2)n1 | A: 9.804%; B: 6.5%; C: 18%
* Cc1ccc2c(c1)OC(C)CN2C(=O)CCc1cscn1 (configuration not stated) | A: 6.18%; B: -8.652%; C: 12.82%
* CN1CCC(C(=O)N2CCN(Cc3cccc(Cl)c3)CC2)CC1=O (configuration not stated) | A: 5.172%; B: -6.876%; C: 13.16%
* Cc1ccc(CN2CCc3onc(C(=O)NC(C)C)c3C2)o1 | A: 0.5587%; B: 2.788%; C: 3.846%
* O=C(CC1=CCCCC1)NCCc1csc(N2CCCC2)n1 | A: 27.8%; B: 10.71%; C: 28.16%
* O=C(O)CN1CCCC2(CCN2Cc2cccc(F)c2)C1 (configuration not stated) | A: -1.105%; B: 0.7426%; C: 4.505%
* COc1ccccc1NC(=O)N1CCCC1c1ccco1 (configuration not stated) | A: 4.95%; B: -1.574%; C: 18.48%
* OC(CNCCn1cccn1)COc1ccc(Br)cc1 (configuration not stated) | A: 13.33%; B: -9.244%; C: 11.11%
* O=C1NC2(CCN(C(=O)c3ccnnc3)CC2)CC1c1ccccc1 (configuration not stated) | A: -7.035%; B: -2.1%; C: -5.319%
* Cc1nc2cc(-c3nccn3C)nn2c(N2CCCC2)c1C | A: 2.26%; B: -11.86%; C: 12.59%
* O=C1CN(C(=O)CC2c3ccccc3CCc3ccccc32)CCN1 | A: 3.478%; B: -3.617%; C: -15%
* COc1ccc(C(=O)N2Cc3cc(C)ccc3OCC2CN(C)C)cc1 (configuration not stated) | A: 7.447%; B: 9.314%; C: 19.79%
* Cn1cc(N2C[C@@H]3CN(Cc4ccccn4)C[C@@H]3C2=O)cn1 | A: -1.031%; B: -2.463%; C: 0%

Some entries from above, unchanged:

| structure | A | B | C |
|---|---|---|---|
| `Cc1ccc(CN2CCc3onc(C(=O)NC(C)C)c3C2)o1` | 0.5587% | 2.788% | 3.846% |
| `O=C1CN(C(=O)CC2c3ccccc3CCc3ccccc32)CCN1` | 3.478% | -3.617% | -15% |

The values are deposited in ChEMBL (CHEMBL3988442, “University of Dundee, Small-Polar-MMV Screening Library” (2021)).